PubChem BioAssay AID652054 (National Center for Advancing Translational Sciences (NCATS), 2013)
The campaign covered roughly 360,000 compounds. About 9,100 (2.5%) were called active. The shares of active, inactive and inconclusive entries below differ from those in the screen. Rule as the data show it: active = max response below about -50%; inconclusive = no clear call, values can overlap the other calls; inactive = above that.

Chains of the proteins cited; added tags and fusions are not shown.
UniProt P35462, whole entry, looked up: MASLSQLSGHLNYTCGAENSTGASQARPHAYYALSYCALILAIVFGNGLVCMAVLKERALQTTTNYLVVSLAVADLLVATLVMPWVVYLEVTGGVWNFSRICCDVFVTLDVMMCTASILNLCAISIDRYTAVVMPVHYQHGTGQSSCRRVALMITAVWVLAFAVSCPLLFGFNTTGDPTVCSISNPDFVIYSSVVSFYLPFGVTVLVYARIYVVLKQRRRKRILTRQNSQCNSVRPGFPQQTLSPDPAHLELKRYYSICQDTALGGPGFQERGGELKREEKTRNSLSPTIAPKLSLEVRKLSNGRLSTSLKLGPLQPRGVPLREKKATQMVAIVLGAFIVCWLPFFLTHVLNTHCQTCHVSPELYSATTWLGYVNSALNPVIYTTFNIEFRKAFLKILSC

Biological target: D(3) dopamine receptor (Homo sapiens) (UniProt P35462)
Experiment: qHTS of D3 Dopamine Receptor Antagonist: qHTS
Details: D3R cells, DiscoveRx beta-arrestin luminescence, antagonist mode; hits give low values
Method in brief: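 Cells expressing the human receptor were seeded at 1500 cells/well, incubated overnight at 37 degrees C in 5% CO2, then exposed to library compounds with dopamine controls for 90 minutes at 37 degrees C before luminescent detection.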
% is scaled to controls: 0 for no effect and ±100 for the full control effect.

| Compound | max response, negative = inhibition |
| --- | --- |
| Clc1cccc(OCCn2cncn2)c1Cl | inconclusive: -32.5% |
| COc1cccc(CNc2nc(NCC3CC3)nc3ccsc23)c1 | inactive: 14.7% |
| CCOC(=O)C1CCCCN1Cc1cc(OC)ccc1OC (stereo unspecified) | inactive: -26% |
| c1ccc(OCCCCN2CCCCC2)cc1 | inconclusive: -37.4% |
| COc1cc(/C=C/c2ccc3cccc(O)c3n2)cc(Cl)c1OC | active: -51.6% |
| Cc1ccc(NC(=O)c2cc3ccccc3cc2O)cc1 | inactive: 39.2% |
| C/C(=C\C(=S)Nc1ccccc1)Nc1ccccc1 | inconclusive: -33.3% |
| FC(F)(F)c1cc(-c2ccccc2)nc(NC2CCCC2)n1 | inactive: 34.4% |
| O=C(NC1CC1)c1cc2c(s1)-c1ccccc1OC2 | inconclusive: -31.2% |
| O=C(NC1CCCCCC1)c1ccc(CN2CCOCC2)cc1 | inconclusive: -36.1% |
| COc1ccccc1N1C(=O)N(C(C)=O)C2C1Nc1ccccc1N2C (stereo unspecified) | inconclusive: -35.8% |
| O=C(CSc1nc2ccccc2[nH]1)N1CCCCC1 | active: -96.2% |
| CCn1cc(C(=O)N[C@@H](CCSC)C(=O)NCCCn2ccnc2)c(=O)c2cc3c(cc21)OCO3 | inactive: 3.87% |
| CCCCNc1cnn(-c2ccccc2)c(=O)c1Cl | inconclusive: -43.2% |
| O=S(=O)(Nc1ccc(N2CCCCC2)cc1)c1ccc(F)c(F)c1 | inactive: 8.57% |
| CC(=O)Nc1ccc(NS(=O)(=O)c2cc(C)sc2C)cc1 | inconclusive: -30.9% |
| COc1ccc(CN(C(=O)c2nsc(Cl)c2Cl)C(C(=O)NC2CCCCC2)c2ccc(OC)cc2)cc1 (stereo unspecified) | inconclusive: -30.6% |
| COc1cc(CN2CCN(c3ccccc3F)CC2)cc(OC)c1O | inconclusive: -39.5% |
| CC(CCc1ccccc1)NC(=O)COC(=O)c1ccc(S(C)(=O)=O)c([N+](=O)[O-])c1 (stereo unspecified) | active: -77.7% |
| CCc1cccc(OCCCCN(CC)CC)c1 | active: -73.5% |
| CCCOC1CCCN(C(=O)c2cc(COc3c(F)cccc3F)on2)C1 (stereo unspecified) | inactive: 12.7% |

| Compound | max response, negative = inhibition |
| --- | --- |
| CC(C)c1ccc(N(CC(=O)NCc2ccc(F)cc2)C(=O)c2csnn2)cc1 | inconclusive: -33.4% |
| O=C(CN1CCCCCC1)Nc1cccc(Br)c1 | inactive: 0% |
| COc1cccc(CNc2nc3ccccc3n2CCN2CCCCC2)c1 | inconclusive: -45.2% |
| Cc1oncc1C(=O)Nc1ccc2ccccc2c1 | inactive: 0.0761% |
| NC(=S)N/N=C/c1ccc2ccccc2c1 | inconclusive: -40.2% |
| CCn1c(-c2cccc(Cl)c2)n[nH]c1=S | inconclusive: -39% |
| CCOC(=O)C1(CCOc2ccccc2)CCN(Cc2ccc(C#CCCO)cc2)CC1 | inconclusive: -37% |
| CC(=O)N(CCc1ccccc1C)Cc1cc2cc3c(cc2[nH]c1=O)OCO3 | inconclusive: -38.3% |
| COc1ccc(C(=O)N2CCN(c3ccc(C)cc3C)CC2)cc1OC | inactive: 3.77% |
| COC(=O)C1CCN(C(=O)c2cc(OC)c(OC)c(OC)c2)CC1 | inconclusive: -47.2% |
| CCc1nc(OCCN(C)C)c2oc3ccccc3c2n1 | inconclusive: -48.2% |
| Fc1cccc(Cc2noc(CN3CCCN(C4Cc5ccccc5C4)CC3)n2)c1 | inconclusive: -30.3% |
| O=S1(=O)N[C@H](Cc2ccccc2)COc2cccc(N3CCN(Cc4ccccc4F)CC3)c21 | inconclusive: -37.6% |
| CCOC(=O)CNC(=O)CSc1nnc(NC(=O)c2ccc(C)cc2)s1 | inactive: -1.27% |
| Clc1ccc(CSC2=NCCCN2)cc1Cl | active: -57.5% |
| COc1ccccc1C(=O)NC(CCSC)C(=O)NC1CCCCCC1 (stereo unspecified) | inconclusive: -34.6% |
| COc1ccc(-c2cc(C(=O)Nc3c(C)nn(Cc4ccc(Cl)cc4)c3C)no2)cc1 | inactive: 5.35% |
| O=c1nc(C(F)(F)F)nc2ccccn12 | inconclusive: -37% |
| CCOC(=O)N1CCN(CCC(=O)Nc2ccc(Br)cc2)CC1 | inconclusive: -37% |
| COc1cccc(NS(=O)(=O)c2ccc3c(c2)C2C=CCC2C(c2ccc(C(=O)O)cc2)N3)c1 (stereo unspecified) | inactive: -29.9% |
| C=CCN1C(=O)/C(=C\c2ccc(C)cc2)N=C1SCC(=O)NCCC | inconclusive: -41% |

Filtered by structure: those above containing an aryl thioether with sulfur outside any ring.

| Compound | max response, negative = inhibition |
| --- | --- |
| O=C(CSc1nc2ccccc2[nH]1)N1CCCCC1 | active: -96.2% |
| CCOC(=O)CNC(=O)CSc1nnc(NC(=O)c2ccc(C)cc2)s1 | inactive: -1.27% |

(more compounds)

| Compound | max response, negative = inhibition |
| --- | --- |
| Cn1cc(-c2ccc(Cl)cc2)cc(C#N)c1=O | inactive: 3.16% |
| CCOc1ccc(NC(=S)N2CCN(S(=O)(=O)c3ccc(OC)cc3)CC2)cc1 | inconclusive: -44.9% |
| Cc1nn(-c2ccccc2)c(N2CCCC2)c1/C=N/n1cnc2scc(-c3ccccc3)c2c1=O | active: -61.1% |
| COc1ccc(C2CC(=O)C3=C(C2)NC(C)=C(C#N)C3c2ccc(N(C)C)cc2)cc1 (stereo unspecified) | inconclusive: -36.6% |
| CCN(CC)S(=O)(=O)c1cccc(C(=O)NCC2(N3CCOCC3)CCCCC2)c1 | inactive: 0% |
| O=C(NC1=NCCS1)c1cccs1 | inconclusive: -32% |
| Cc1cccc(-n2nnnc2SCC(=O)c2cc(C)n(CC3CCCO3)c2C)c1 (stereo unspecified) | inconclusive: -38.5% |
| Cc1ccccc1CS(=O)(=O)c1nnc([C@H](CC(C)C)NC(=O)OC(C)(C)C)o1 | active: -65.9% |
| CC(C)OC(=O)CSc1nc(N)c(C#N)c(-c2cccs2)c1C#N | inactive: 11.5% |
| CN(C)c1ccc(C(=O)n2nnc3ccccc32)cc1 | inconclusive: -36.4% |
| CCN1CCN(Cc2ccc(OCc3ccccc3)c(OC)c2)CC1 | inactive: -18.9% |
| Cc1cnnn1-c1ccc([N+](=O)[O-])cc1 | inconclusive: -31.4% |
| O=C(Nc1ccccc1C(=O)NCc1ccccc1)c1ccccc1 | inconclusive: -44.9% |
| Cc1ccccc1-c1nc(-c2ccc(Br)o2)no1 | inactive: 16.9% |
| Cc1ccc(NC(=O)c2cc([N+](=O)[O-])ccc2N2CCOCC2)cc1C | inconclusive: -30.7% |
| Cc1nc([N+](=O)[O-])c(Br)n1Cc1ccc(Cl)c(Cl)c1 | active: -76.2% |
| CSc1ccccc1NC(=O)CN(C)C(=O)COc1cccc2cccnc12 | inconclusive: -37.5% |
| Cc1cc(=O)oc(C)c1C(=O)N[C@@H](Cc1ccccc1)C(=O)O | inactive: -7.66% |
| Cc1cc(C)cc(NC(=O)COC(=O)c2ccc(CN3CCCC3=O)cc2)c1 | inactive: -14.6% |
